This passage reports survivor count and T/C results from PubChem BioAssay AID256 (DTP/NCI, 2004).

This experiment has as its system CD2F1 mice, L1210 leukemia ip, survival T/C. In words: NCI In Vivo Anticancer Drug Screen. Data for tumor model L1210 Leukemia (intraperitoneal) in CD2F1 (CDF1) mice. Conditions: higher T/C = longer survival. A digest of the protocol: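 Ratio T/C, where T is the treated-group value and C the vehicle-dosed control value, from mice implanted with a transplantable tumor.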

The mark [1] stands for this setting: T/C endpoint: mean survival time, dose: 400.0 mg/kg/injection, schedule: Q01DX009 (ip), vehicle: saline with Tween-80.

SMILES strings stand for the structures. The list is a part of this screen's results and no random one: it gathers tests that were run many times, whatever their T/C, doses with no T/C, and many T/C values between a quarter and a half above the control. Further doses and runs are listed elsewhere. T/C: endpoint of the treated group in % of that of the vehicle group. Some doses have a count of surviving animals in place of a T/C: the source files T/C as zero there, which appears to mark a toxic dose or a test without result, not a measured value. Some survivor counts are full or nearly so, which does not show that the dose was tolerated: survival well below the control is almost never listed, so the zero probably covers shortened survival too. Counts of survivors are from the toxicity check (mostly the fifth day) where no day follows; animals may have died later. Schedules are NCI's codes, read here as Q, the interval in days (D) or hours (H), X, the number of doses. Where survival is the endpoint, this PubChem deposit counts one and a half times the control or more as active, and values a quarter to a half above the control carry no call in these data; other NCI protocols may use other cut-offs. Some T/C values are followed by the survivors on the day toxicity was checked, most often the fifth; without a count, all were alive then.

Consider `CN(C)c1nc(N(C)C)nc(N(C)C)n1`, for which the survivor count is, setting by setting: under setting [1], 0 of 6; (T/C endpoint: mean survival time, dose: 800.0 mg/kg/injection, schedule: Q01DX001 (ip), vehicle: saline with Tween-80) 0 of 6; (T/C endpoint: median survival time, dose: 64.0 mg/kg/injection, schedule: Q03HX008 (ip), vehicle: Klucel (hydroxypropylcellulose) (HPC)) 10 of 10; (T/C endpoint: median survival time, dose: 64.0 mg/kg/injection, schedule: Q03HX016 (ip), vehicle: Klucel (hydroxypropylcellulose) (HPC)) 10 of 10; (T/C endpoint: median survival time, dose: 64.0 mg/kg/injection, schedule: Q03HX024 (ip), vehicle: Klucel (hydroxypropylcellulose) (HPC)) 10 of 10; (T/C endpoint: median survival time, dose: 128.0 mg/kg/injection, schedule: Q03HX008 (ip), vehicle: Klucel (hydroxypropylcellulose) (HPC)) 0 of 10. Besides, the survivor count by setting is: (T/C endpoint: median survival time, dose: 128.0 mg/kg/injection, schedule: Q03HX016 (ip), vehicle: Klucel (hydroxypropylcellulose) (HPC)) 0 of 10; (T/C endpoint: median survival time, dose: 128.0 mg/kg/injection, schedule: Q03HX024 (ip), vehicle: Klucel (hydroxypropylcellulose) (HPC)) 0 of 10; (T/C endpoint: median survival time, dose: 256.0 mg/kg/injection, schedule: Q01DX009 (ip), vehicle: Klucel (hydroxypropylcellulose) (HPC)) 7 of 10; (T/C endpoint: median survival time, dose: 512.0 mg/kg/injection, schedule: Q01DX001 (ip), vehicle: Klucel (hydroxypropylcellulose) (HPC)) 10 of 10; (T/C endpoint: median survival time, dose: 512.0 mg/kg/injection, schedule: Q01DX009 (ip), vehicle: Klucel (hydroxypropylcellulose) (HPC)) 0 of 10; (T/C endpoint: median survival time, dose: 512.0 mg/kg/injection, schedule: Q04DX003 (ip), vehicle: Klucel (hydroxypropylcellulose) (HPC)) 8 of 10. Further, the survivor count was 8 of 10 (T/C endpoint: median survival time, dose: 512.0 mg/kg/injection, schedule: Q08DX002 (ip), vehicle: Klucel (hydroxypropylcellulose) (HPC)); 2 of 10 (T/C endpoint: median survival time, dose: 1024.0 mg/kg/injection, schedule: Q01DX001 (ip), vehicle: Klucel (hydroxypropylcellulose) (HPC)); 0 of 10 (T/C endpoint: median survival time, dose: 1024.0 mg/kg/injection, schedule: Q04DX003 (ip), vehicle: Klucel (hydroxypropylcellulose) (HPC)); 0 of 10 (T/C endpoint: median survival time, dose: 1024.0 mg/kg/injection, schedule: Q08DX002 (ip), vehicle: Klucel (hydroxypropylcellulose) (HPC)).

As to `C#CC(C)(O)CCCCCC` (stereo not given), the survivor count under setting [1] is reported as 4 of 6.

For `CCCCOc1c(OCCCC)c(=O)c1=O`, the T/C (T/C endpoint: mean survival time, dose: 400.0 mg/kg/injection, schedule: Q01DX001 (ip), vehicle: saline) was 129 % of control [4 of 6 alive].

Regarding `CS(=O)(=O)SC(F)(F)F`, the survivor count (T/C endpoint: mean survival time, dose: 10.0 mg/kg/injection, schedule: Q01DX001 (ip), vehicle: saline) is on record as 2 of 6; the survivor count (T/C endpoint: mean survival time, dose: 20.0 mg/kg/injection, schedule: Q01DX001 (ip), vehicle: saline) is 0 of 6; the survivor count (T/C endpoint: mean survival time, dose: 40.0 mg/kg/injection, schedule: Q01DX001 (ip), vehicle: saline) was 0 of 6; the survivor count (T/C endpoint: mean survival time, dose: 80.0 mg/kg/injection, schedule: Q01DX001 (ip), vehicle: saline) is 0 of 6.

Take `CC(=O)Nc1ccccc1.[Hg]`: the survivor count runs as follows: (T/C endpoint: mean survival time, dose: 6.25 mg/kg/injection, schedule: Q01DX009 (ip), vehicle: saline with Tween-80) 5 of 6; (T/C endpoint: mean survival time, dose: 12.5 mg/kg/injection, schedule: Q01DX009 (ip), vehicle: saline with Tween-80) 0 of 6; (T/C endpoint: mean survival time, dose: 25.0 mg/kg/injection, schedule: Q01DX009 (ip), vehicle: saline with Tween-80) 0 of 6; (T/C endpoint: mean survival time, dose: 25.0 mg/kg/injection, schedule: Q04DX002 (ip), vehicle: saline with Tween-80) 0 of 3; (T/C endpoint: mean survival time, dose: 50.0 mg/kg/injection, schedule: Q04DX002 (ip), vehicle: saline with Tween-80) 0 of 3; (T/C endpoint: mean survival time, dose: 100.0 mg/kg/injection, schedule: Q04DX002 (ip), vehicle: saline with Tween-80) 0 of 3.

Consider `C1=C[N]2c3c4c(ccc3=C1)=CC=C[N]4[Ga]2[c]1ccccc1`, for which the survivor count was 3 of 6 (T/C endpoint: mean survival time, dose: 200.0 mg/kg/injection, schedule: Q04DX003 (ip), vehicle: saline with Tween-80) and 0 of 6 (T/C endpoint: mean survival time, dose: 400.0 mg/kg/injection, schedule: Q04DX003 (ip), vehicle: saline with Tween-80).
